Data as given in PubChem BioAssay AID504774 (Drosophila RNAi Screening Center, 2011).

Test: 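Fly genes whose loss alters survival after alkylation damage to DNA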 (primary screen)
System: Drosophila Kc167 cells
Knock-down reagent: long dsRNA against Drosophila genes, about 0.25 µg dsRNA per well
Timing: about 6 days: 3 days knock-down, then 3 days with or without MMS
Treatment: methyl methanesulphonate 0.004% (w/v) for 3 days after knock-down
Read-out: 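ATP-dependent luminescence as a measure of live cells in MMS-exposed wells, quantile normalised within each plate, with replicate values also given as a mean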
Reading the numbers: mean viability with MMS and viability with MMS: higher = more surviving cells after MMS
The screen tested about 23,000 reagents; this is a random part of those that have a named target and a result. 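Values are quantile-normalised luminescence on an arbitrary scale; higher means more cells surviving MMS.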 The numbers tell different reagents against one gene apart. A plus sign joins genes that one reagent is predicted to hit. Not all columns of the deposit are shown.

CG7945 (GeneID 39679): mean viability with MMS = 3.50e6; viability with MMS, replicate 1 = 4.00e6
lectin-30A (GeneID 53541): mean viability with MMS = 3.67e6; viability with MMS, replicate 1 = 4.02e6
Ifrd1 (GeneID 33489) #1: mean viability with MMS = 3.35e6; viability with MMS, replicate 1 = 4.06e6
Ifrd1 (GeneID 33489) #2: mean viability with MMS = 3.31e6; viability with MMS, replicate 1 = 4.08e6
ea (GeneID 41858): mean viability with MMS = 3.88e6; viability with MMS, replicate 1 = 4.62e6
CG33919 (GeneID 3772720): mean viability with MMS = 3.55e6; viability with MMS, replicate 1 = 3.97e6
Scsalpha2 (GeneID 42326): mean viability with MMS = 3.66e6; viability with MMS, replicate 1 = 4.08e6

Laid out differently: 2 of the entries above
| predicted target | reagent | mean viability with MMS | viability with MMS, replicate 1 |
| --- | --- | --- | --- |
| Ifrd1 (GeneID 33489) | 1 | 3.35e6 | 4.06e6 |
| Ifrd1 (GeneID 33489) | 2 | 3.31e6 | 4.08e6 |

Continued:
CG6761 (GeneID 39134): mean viability with MMS = 3.41e6; viability with MMS, replicate 1 = 3.88e6
CG31259 (GeneID 41010): mean viability with MMS = 3.58e6; viability with MMS, replicate 1 = 4.05e6
sp3 (GeneID 42545): mean viability with MMS = 3.66e6; viability with MMS, replicate 1 = 4.15e6
CG10646 (GeneID 39426): mean viability with MMS = 1.73e6; viability with MMS, replicate 1 = 3.79e6
CG42586 + CG31775: mean viability with MMS = 3.39e6; viability with MMS, replicate 1 = 3.86e6
CG14195 (GeneID 32911): mean viability with MMS = 3.48e6; viability with MMS, replicate 1 = 3.93e6
knk (GeneID 47137): mean viability with MMS = 3.59e6; viability with MMS, replicate 1 = 4.09e6
